Data published in PubChem BioAssay AID2685 (National Center for Advancing Translational Sciences (NCATS), 2010).
The list shows a part of the results. Further columns of the screen follow, without active or inactive calls. The list favours compounds with an active or inconclusive main result. Potencies come from curve fits of mixed quality, noted in brackets.

Assay: qHTS Assay for Lipid Storage Modulators in Drosophila S3 Cells;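 on cell number change: cells counted by Cell Tracker Red CMTPX staining in the red channel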
Conditions: BODIPY lipid droplet fluorescence, 18-24 h; for cell number change: measured here: cell count max response, cells fed with added oleic acid
Procedure, shortened: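 Drosophila S3 cells loaded with oleic acid (400 uM, as added) and compounds at several concentrations; lipid droplets imaged by 488-nm laser-scanning cytometry, 500–530 nm intensity and object ratio to cell channel. Percent activity normalized to 20 uM Triacsin C.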

[1] = measured here: cell number channel AC50, cells fed with added oleic acid
[2] = measured here: lipid fluorescence (Fed channel) AC50, cells fed with added oleic acid

Which results are given for `CCc1cc(C(=O)c2ccc(OC)cc2)c(NC(=O)CC(C)(C)CC(=O)O)s1`?
cell number change: -21%; AC50 [1]: 0.731 µM [falling, full curve, poor fit]

For `Cc1cc(C)nc(N2CCCC(C(=O)NCc3ccccc3F)C2)n1` (centres undefined), which cell number change is on record?
The cell number change was 10.9%.

What about the AC50 [2] of the same compound?
The AC50 was 2.59 µM [rising, full curve, poor fit].

For `COc1ccc(Cc2nnc(NC(=O)Nc3ccccc3F)s2)cc1OC`, which cell number change is on record?
Its cell number change is -25%.

With `CCOC(=O)c1cc(C#N)c(SCC(=O)O)[nH]c1=O` as the compound, how does the cell number change read?
Its cell number change is -97.1%.

What does the source list for `CCNC(=O)Nc1cc2nc(C)n(Cc3ccc(Br)cc3)c2nc1C`?
AC50 [1]: 0.291 µM [rising, partial curve]; AC50 [2]: 0.164 µM [rising, full curve]

Which AC50 [1] does the source give for `Cc1ccc(-c2nc(=S)c3c(n2Cc2ccco2)CCCC3)cc1` here?
The AC50 was 3.26 µM [rising, single point].

For `Cc1cccc(NC(=O)c2ccccn2)c1C`, which cell number change is on record?
Its cell number change is 27.1%.

And the AC50 [1]?
Its AC50 is 0.184 µM [rising, full curve, poor fit].

And the AC50 [2]?
Its AC50 is 2.06 µM [rising, full curve].

With `Cc1cc(O)ccc1N/C=C1\CCCC1=O` as the compound, how does the cell number change read?
Its cell number change is -10%.

What about the AC50 [2] of the same compound?
The AC50 was 7.31 µM [rising, single point].

With `Cn1cc([N+](=O)[O-])c(C(=O)N/N=C/c2ccc3c(c2)OCO3)n1` as the compound, how does the AC50 [1] read?
The AC50 was 0.0731 µM [falling, single point].

And the AC50 [2]?
The AC50 was 0.146 µM [falling, partial curve, poor fit].

Which cell number change does the source give for `CC(C)(C)c1ccc(C(=O)NCCC(=O)NCc2ccco2)cc1` here?
Its cell number change is 9.07%.

What about the AC50 [1] of the same compound?
Its AC50 is 6.51 µM [falling, single point].

With `COc1cc(/C=N/NC(=O)C2c3ccccc3Oc3ccccc32)ccc1O` as the compound, how does the cell number change read?
Its cell number change is -45.3%.

What about the AC50 [1] of the same compound?
The AC50 was 0.00461 µM [falling, full curve, poor fit].

With `Cc1ccc(NC(=O)Nc2ccc3c(c2)C(=O)OC3)cc1Cl` as the compound, how does the cell number change read?
Its cell number change is 15.5%.

And the AC50 [2]?
Its AC50 is 1.64 µM [rising, full curve].

Which cell number change does the source give for `CC1(C)CC(=O)c2c(n(-c3cccc4ccccc34)ccc2=O)C1` here?
Its cell number change is 2.21%.

Which cell number change does the source give for `CCOC(=O)Cn1c(=O)c(-c2ccccc2NC)nc2ccccc21` here?
The cell number change was -28.4%.

And the AC50 [1]?
The AC50 was 0.517 µM [rising, full curve].

With `CCOC(=O)C1(Cc2cccc(OC)c2)CCCN(S(=O)(=O)CC)C1` (centres undefined) as the compound, how does the cell number change read?
The cell number change was 0.246%.

And the AC50 [2]?
Its AC50 is 0.58 µM [rising, single point].

For `O=C(c1ccc(Cl)cc1)C(CN1CCCCC1)c1ccccc1` (centres undefined), which cell number change is on record?
Its cell number change is -66.2%.

And the AC50 [1]?
Its AC50 is 18.4 µM [falling, single point].

And the AC50 [2]?
The AC50 was 29.1 µM [falling, single point].

Which cell number change does the source give for `Cc1cccc2sc(NC(=O)CSc3nc4ccccc4o3)nc12` here?
The cell number change was -5.86%.

What about the AC50 [1] of the same compound?
The AC50 was 0.116 µM [rising, partial curve].

What about the AC50 [2] of the same compound?
The AC50 was 6.51 µM [rising, partial curve, poor fit].

What does the source list for `Cc1ccccc1C(=O)N/N=C1/SCC(=O)N1Cc1ccc2c(c1)OCO2`?
cell number change: 3.88%; AC50 [2]: 0.13 µM [rising, full curve, poor fit]

For `Cc1ccc(S(=O)(=O)N2CCC(C(=O)N/N=C/c3ccccc3[N+](=O)[O-])CC2)cc1`, which cell number change is on record?
The cell number change was -9.63%.

What about the AC50 [1] of the same compound?
Its AC50 is 0.731 µM [falling, single point].

What about the AC50 [2] of the same compound?
The AC50 was 0.058 µM [falling, full curve, poor fit].

For `COC(=O)c1ccc(OCC(=O)c2ccc(C)c(C)c2)cc1`, which AC50 [2] is on record?
The AC50 was 25.9 µM [rising, partial curve].

Which cell number change does the source give for `COc1cccc2cc(C(=O)NCc3ccc(Cl)cc3)c(=N)oc12` here?
Its cell number change is 54.4%.

And the AC50 [1]?
Its AC50 is 35.5 µM [rising, single point].

What about the AC50 [2] of the same compound?
Its AC50 is 4.47 µM [rising, partial curve, poor fit].

For `CCOC(=O)N1CCN(c2cc(NCCC(=O)O)c3c4c(onc24)-c2ccccc2C3=O)CC1`, which cell number change is on record?
Its cell number change is -271%.

And the AC50 [1]?
Its AC50 is 23.1 µM [falling, single point].

For `O=C(c1cccc(F)c1)n1nnc2ccccc21`, which cell number change is on record?
The cell number change was -28.6%.

And the AC50 [1]?
Its AC50 is 3.66 µM [falling, full curve, poor fit].

And the AC50 [2]?
Its AC50 is 29.1 µM [falling, single point].

For `COc1ccccc1NC(=O)c1[nH]c(C)c(C(C)=O)c1C`, which cell number change is on record?
Its cell number change is 2.14%.

What about the AC50 [2] of the same compound?
The AC50 was 3.26 µM [falling, full curve, poor fit].

For `COc1ccc(CNC(=O)CN(c2cc(C)cc(C)c2)S(=O)(=O)c2c(C)noc2C)cc1`, which AC50 [2] is on record?
The AC50 was 0.731 µM [rising, full curve, poor fit].

Which cell number change does the source give for `O=C(Nc1ccccc1C(=O)NCc1ccccc1)c1ccccc1Br` here?
Its cell number change is 8.31%.

And the AC50 [1]?
The AC50 was 6.51 µM [rising, partial curve, poor fit].

With `COc1ccccc1OCC(=O)N1CC2(C)CC1CC(C)(C)C2` (centres undefined) as the compound, how does the cell number change read?
Its cell number change is 48.1%.

What about the AC50 [1] of the same compound?
Its AC50 is 13 µM [rising, partial curve].

And the AC50 [2]?
The AC50 was 20.6 µM [rising, partial curve].

Which cell number change does the source give for `CCCNC(=O)c1ccc2c(=O)n3c(-c4ccc(C)cc4)csc3nc2c1` here?
Its cell number change is 12.6%.

And the AC50 [2]?
The AC50 was 11.6 µM [rising, single point].

Which cell number change does the source give for `CC1(C)NC(=O)N(CC(=O)N2CCN(S(=O)(=O)c3cc(Cl)ccc3Cl)CC2)C1=O` here?
The cell number change was -10.7%.

For `O=C(Cn1c(CO)nc2ccccc21)Nc1ccc2c(c1)OCCCO2`, which cell number change is on record?
Its cell number change is -15.2%.

What does the source list for `O=C(NNc1cccc(Cl)n1)c1ccc(Cl)nc1`?
cell number change: 4.3%; AC50 [2]: 29.1 µM [rising, single point]

Which cell number change does the source give for `COc1ccccc1N(CC(=O)N/N=C/c1ccc(SC)cc1)S(C)(=O)=O` here?
Its cell number change is 26.5%.

What about the AC50 [2] of the same compound?
Its AC50 is 16.4 µM [rising, partial curve].

For `Cc1ccc(NC(=O)C(=Cc2ccc(C(=O)O)cc2)C(=O)Nc2ccc(C)cc2C)c(C)c1`, which cell number change is on record?
The cell number change was -37.1%.

For `Cc1ccc(NC(=O)CNCc2cccs2)cc1Br`, which cell number change is on record?
The cell number change was 8.11%.

With `CC1N(C(=O)N(C)C)CCN1S(=O)(=O)c1ccccc1` (centres undefined) as the compound, how does the cell number change read?
Its cell number change is -12.5%.

Which cell number change does the source give for `COc1cc2c(cc1OC)CN(C(=O)CCOc1ccccc1)CC2` here?
Its cell number change is -2.86%.

With `COC(=O)c1ccccc1NC(=O)CSc1ccc(C)cc1` as the compound, how does the cell number change read?
The cell number change was 19.1%.

What about the AC50 [2] of the same compound?
Its AC50 is 7.31 µM [rising, partial curve].

What does the source list for `COc1ccc2cc(CN(Cc3ccco3)Cc3nnnn3C3CCCCC3)c(=O)[nH]c2c1`?
cell number change: -36.4%; AC50 [1]: 29.1 µM [falling, single point]; AC50 [2]: 18.4 µM [falling, single point]

For `CCc1ccc(NC(=O)C2CCCN2S(=O)(=O)c2ccc3c(c2)n(C)c(=O)c(=O)n3C)cc1` (centres undefined), which cell number change is on record?
Its cell number change is 11.6%.

What about the AC50 [2] of the same compound?
Its AC50 is 20.6 µM [rising, partial curve, poor fit].
